These are yes or no findings as the source states them, for the method shown. Binding seen in cells or lysates may run through a third protein. Some entries that bind do so weakly or less than the wild type. For some assays here: Tags and fused reporters may be left off the sequences shown.
T1: IFITM5 fused to SCFP or SYFP (interferon-induced transmembrane protein 5) (human) (UniProt A6NNB3)
T1 sequence: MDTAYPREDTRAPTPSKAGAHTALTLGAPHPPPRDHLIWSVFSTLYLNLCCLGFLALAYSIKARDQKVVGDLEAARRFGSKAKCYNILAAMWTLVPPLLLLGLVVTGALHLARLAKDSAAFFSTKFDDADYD

Sequences of proteins named here, by UniProt entry; tags and fusion partners are left off. A change or cut given only in a name is not applied to a line headed by its entry. A line that says so, or that is headed by a name, gives the form on record, which may keep a tag or linker.
UniProt Q01628: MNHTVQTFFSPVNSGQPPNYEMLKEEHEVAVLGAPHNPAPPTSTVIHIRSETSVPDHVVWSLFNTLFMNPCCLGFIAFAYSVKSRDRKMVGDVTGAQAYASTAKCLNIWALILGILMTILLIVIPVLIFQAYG
IFITM3-43AS (amino acids 43–48 changed to alanines) with 3xFLAG or myc tag (Q01628, form named): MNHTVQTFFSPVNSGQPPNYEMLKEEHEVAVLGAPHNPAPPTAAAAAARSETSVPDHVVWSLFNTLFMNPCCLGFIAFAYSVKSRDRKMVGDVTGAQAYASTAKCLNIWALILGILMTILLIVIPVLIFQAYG
UniProt Q01629: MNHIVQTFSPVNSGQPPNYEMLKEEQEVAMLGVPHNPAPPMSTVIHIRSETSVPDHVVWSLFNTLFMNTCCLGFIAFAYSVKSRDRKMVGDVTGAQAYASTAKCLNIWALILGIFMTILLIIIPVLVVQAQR


Assays:
[1] = biological target: T2, IFITM3-wt fused to SCFP or SYFP (interferon-induced transmembrane protein 3) (UniProt Q01628 1-133); test: FRET or BRET; FACS-FRET in 293T cells with reduced amounts of transfected plasmids; data not shown
T2 construct: interferon-induced transmembrane protein 3 (IFITM3), wild type; One molecule stands for both FRET copies (SCFP3A fusion and SYFP2 fusion); also called SxFP-IFITM3; IFTIM3; source: 293T, transiently transfected, in cells; not shown: SCFP3A or SYFP2, N-terminal, kept

[2] = biological target: IFITM3-FF (F75A, F78A) fused to SCFP or SYFP (UniProt Q01628); test: FRET or BRET; flow cytometry-based FRET (FACS-FRET) in transiently transfected HEK 293T cells, usually 1 µg of each plasmid encoding the FRET partners; read-out percent of FRET-positive cells; where the paper tells the orientation the binder is the SCFP fusion (donor) and the target the SYFP fusion (acceptor)
[3] = biological target: T2, IFITM3-wt fused to SCFP or SYFP …; test: as above
[4] = biological target: IFITM3-wt with 3xFLAG or myc tag (UniProt Q01628); test: co-IP; 293T cells cotransfected with 2 µg each of plasmids for myc- and 3xFLAG-tagged IFITM3 proteins; lysis in 50 mM Tris pH 7.4, 150 mM NaCl, 0.5% CHAPSO; precipitation with anti-FLAG (M2), blot with anti-myc (9E10)
[5] = biological target: IFITM3-43AS (amino acids 43–48 changed to alanines) fused to SCFP or SYFP (UniProt Q01628); test: FRET or BRET; flow cytometry-based FRET (FACS-FRET) in transiently transfected HEK 293T cells, usually 1 µg of each plasmid encoding the FRET partners; read-out percent of FRET-positive cells; where the paper tells the orientation the binder is the SCFP fusion (donor) and the target the SYFP fusion (acceptor)
[6] = biological target: IFITM3-FF (F75A, F78A) with 3xFLAG or myc tag (UniProt Q01628); test: co-IP; 293T cells cotransfected with 2 µg each of plasmids for myc- and 3xFLAG-tagged IFITM3 proteins; lysis in 50 mM Tris pH 7.4, 150 mM NaCl, 0.5% CHAPSO; precipitation with anti-FLAG (M2), blot with anti-myc (9E10)
[7] = biological target: T1, IFITM5 fused to SCFP or SYFP (interferon-induced transmembrane protein 5) (human); test: FRET or BRET; flow cytometry-based FRET (FACS-FRET) in transiently transfected HEK 293T cells, usually 1 µg of each plasmid encoding the FRET partners; read-out percent of FRET-positive cells; where the paper tells the orientation the binder is the SCFP fusion (donor) and the target the SYFP fusion (acceptor)
[8] = biological target: IFITM2 fused to SCFP or SYFP (interferon-induced transmembrane protein 2) (UniProt Q01629); test: as above
[9] = biological target: IFITM1 fused to SCFP or SYFP (interferon-induced transmembrane protein 1) (UniProt P13164); test: as above

Row | binding [3] | binding [4] | binding [7] | Molecule | other results
1 | binds |  |  | IFITM3-FF (F75A, F78A) fused to SCFP or SYFP (from UniProt Q01628 1-133) | binding [1]: binds; binding [2]: binds
2 |  | binds |  | IFITM3-wt with 3xFLAG or myc tag (from UniProt Q01628 1-133) | 
3 | binds |  |  | IFITM3-43AS (amino acids 43–48 changed to alanines) fused to SCFP or SYFP (from UniProt Q01628 1-133) | binding [5]: binds
4 |  | binds |  | IFITM3-FF (F75A, F78A) with 3xFLAG or myc tag (from UniProt Q01628 1-133) | binding [6]: binds
5 |  | binds |  | IFITM3-43AS (amino acids 43–48 changed to alanines) with 3xFLAG or myc tag (from UniProt Q01628 1-133) | 
6 | binds |  | binds | IFITM3-wt fused to SCFP or SYFP (interferon-induced transmembrane protein 3) (from UniProt Q01628 1-133) | binding [1]: binds
7 | binds |  | binds | IFITM2 fused to SCFP or SYFP (interferon-induced transmembrane protein 2) (from UniProt Q01629 1-132) | binding [8]: binds
8 |  |  | binds | IFITM5 fused to SCFP or SYFP (interferon-induced transmembrane protein 5) (protein, UniProt A6NNB3 1-132) MDTAYPREDTRAPTPSKAGAHTALTLGAPHPPPRDHLIWSVFSTLYLNLCCLGFLALAYSIKARDQKVVGDLEAARRFGSKAKCYNILAAMWTLVPPLLLLGLVVTGALHLARLAKDSAAFFSTKFDDADYD | 

Row | Molecule | binding [3] | binding [4] | binding [7] | other results
9 | IFITM1 fused to SCFP or SYFP (interferon-induced transmembrane protein 1) (natural protein, UniProt P13164 1-125, looked up, interferon-induced transmembrane protein 1 (IFITM1); One molecule stands for both FRET copies: one carries SCFP3A (donor), the other SYFP2 (acceptor); also called SCFP3A-IFITM1; SYFP2-IFITM1; source: 293T, transiently transfected, in cells; not shown: SCFP3A or SYFP2, N-terminal, kept) MHKEEHEVAVLGPPPSTILPRSTVINIHSETSVPDHVVWSLFNTLFLNWCCLGFIAFAYSVKSRDRKMVGDVTGAQAYASTAKCLNIWALILGILMTIGFILLLVFGSVTVYHIMLQIIQEKRGY | binds |  | binds | binding [9]: binds; binding [8]: binds

From publication PMC6719045, “Analysis of IFITM-IFITM Interactions by a Flow Cytometry-Based FRET Assay” (International Journal of Molecular Sciences, 2019)
